Data on two substances can be found in paper PMC13399123.

Amino acid sequences for entries named in this document (tags omitted). A change or cut given only in a name is not applied to a line headed by its entry. Residues count along the entry.
UniProt Q14247, residues 492-550: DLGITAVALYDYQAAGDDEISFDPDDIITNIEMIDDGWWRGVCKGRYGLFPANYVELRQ
UniProt Q53T59: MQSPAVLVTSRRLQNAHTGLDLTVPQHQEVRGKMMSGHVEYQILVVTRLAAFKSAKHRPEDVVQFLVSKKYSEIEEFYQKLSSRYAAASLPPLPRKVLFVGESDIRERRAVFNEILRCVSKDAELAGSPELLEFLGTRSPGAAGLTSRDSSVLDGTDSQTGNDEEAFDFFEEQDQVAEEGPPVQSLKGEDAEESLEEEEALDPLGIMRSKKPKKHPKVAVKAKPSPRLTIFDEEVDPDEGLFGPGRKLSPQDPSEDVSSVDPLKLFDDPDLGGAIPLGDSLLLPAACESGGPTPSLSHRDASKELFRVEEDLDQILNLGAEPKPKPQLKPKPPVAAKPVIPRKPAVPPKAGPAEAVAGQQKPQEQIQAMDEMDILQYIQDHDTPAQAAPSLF

The target of this assay is GST-SH3 (SH3 domain of cortactin fused to GST) (UniProt Q14247). Kind of assay: pull-down; equal concentrations of GST-SH3 (on glutathione beads) and purified MBP-tagged HS1BP3 proteins incubated 2 h at 4 °C, six washes with GST-buffer, anti-MBP immunoblot; both purified. On the technique in general: In western blotting, separated proteins are transferred to a membrane and probed.

No constants are given. Whether binding was seen depends on the method and setting.

As for “full-length MBP-HS1BP3 PRR3.1 mutant (prolines of PRR3.1 replaced with alanine) (from UniProt Q53T59)”, the binding result was “no binding”. The same measure for “full-length MBP-HS1BP3 PRR3.2 mutant (prolines of PRR3.2 replaced with alanine) (from UniProt Q53T59)”: “no binding”.
